Test system: proteins in oral lavage
Assay: Abundance of proteins in human oral lavage (SomaLogic), TABLE 1
Assay type: in vivo
Settings: for Means (Original Scale) High bleeder BL / Means (Original Scale) High bleeder W4 / Means (Original Scale) Low bleeder BL: abundance in oral lavage; for Means (Original Scale) High bleeder BL: high bleeders (gingivitis); for Means (Original Scale) High bleeder BL / Means (Original Scale) Low bleeder BL: baseline; for Means (Original Scale) High bleeder W4 / Fold Change High bleeder W4 vs High bleeder BL: high bleeders; for Means (Original Scale) High bleeder W4: week 4 of investigative products; for Means (Original Scale) Low bleeder BL: low bleeders (healthy); for Fold Change High bleeder BL vs Low bleeder BL / Fold Change High bleeder W4 vs High bleeder BL: oral lavage; for Fold Change High bleeder BL vs Low bleeder BL: high bleeders vs low bleeders at baseline; for Fold Change High bleeder W4 vs High bleeder BL: week 4 of investigative products vs baseline

Molecule | Means (Original Scale) High bleeder BL | Means (Original Scale) High bleeder W4 | Means (Original Scale) Low bleeder BL | Fold Change High bleeder BL vs Low bleeder BL | Fold Change High bleeder W4 vs High bleeder BL
Intercellular adhesion molecule 2 (protein, UniProt P13598 25-275, looked up) Intercellular adhesion …: KVFEVHVRPKKLAVEPKGSLEVNCSTTCNQPEVGGLETSLDKILLDEQAQWKHYLVSNISHDTVLQCHFTCSGKQESMNSNVSVYQPPRQVILTLQPTLVAVGKSFTIECRVPTVEPLDSLTLFLFRGNETLHYETFGKAAPAPQEATATFNSTADREDGHRNFSCLAVLDLMSRGGNIFHKHSAPKMLEIYEPVSDSQMVIIVTVVSVLLSLFVTSVLLCFIFGQHLRQQRMGTYGVRAAWRRLPQAFRP | 4810 | 1913 | 507 | 6.58 | 0.55
Interferon regulatory factor 1 (protein, UniProt P10914 1-325, looked up) Interferon regulatory factor 1: MPITRMRMRPWLEMQINSNQIPGLIWINKEEMIFQIPWKHAAKHGWDINKDACLFRSWAIHTGRYKAGEKEPDPKTWKANFRCAMNSLPDIEEVKDQSRNKGSSAVRVYRMLPPLTKNQRKERKSKSSRDAKSKAKRKSCGDSSPDTFSDGLSSSTLPDDHSSYTVPGYMQDLEVEQALTPALSPCAVSSTLPDWHIPVEVVPDSTSDLYNFQVSPMPSTSEATTDEDEEGKLPEDIMKLLEQSEWQPTNVDGKGYLLNEPGVQPTSVYGDFSCKEEPEIDSPGGDIGLSLQRVFTDLKNMDATWLDSLLTPVRLPSIQAIPCAP | 2361 | 954 | 165 | 7.66 | 0.64
72 kDa type IV collagenase (protein, UniProt P08253 110-660, looked up) 72 kDa type IV collagenase: YNFFPRKPKWDKNQITYRIIGYTPDLDPETVDDAFARAFQVWSDVTPLRFSRIHDGEADIMINFGRWEHGDGYPFDGKDGLLAHAFAPGTGVGGDSHFDDDELWTLGEGQVVRVKYGNADGEYCKFPFLFNGKEYNSCTDTGRSDGFLWCSTTYNFEKDGKYGFCPHEALFTMGGNAEGQPCKFPFRFQGTSYDSCTTEGRTDGYRWCGTTEDYDRDKKYGFCPETAMSTVGGNSEGAPCVFPFTFLGNKYESCTSAGRSDGKMWCATTANYDDDRKWGFCPDQGYSLFLVAAHEFGHAMGLEHSQDPGALMAPIYTYTKNFRLSQDDIKGIQELYGASPDIDLGTGPTPTLGPVTPEICKQDIVFDGIAQIRGEIFFFKDRFIWRTVTPRDKPMGPLLVATFWPELPEKIDAVYEAPQEEKAVFFAGNEYWIYSASTLERGYPKPLTSLGLPPDVQRVDAAFNWSKNKKTYIFAGDKFWRYNEVKKKMDPGFPKLIADAWNAIPDNLDAVVDLQGGGHSYFFKGAYYLKLENQSLKSVKFGSIKSDWLGC | 4284 | 2573 | 1249 | 3.20 | 0.61
Interleukin-1 receptor-like 2 (protein, UniProt Q9HB29 20-575, looked up) Interleukin-1 receptor-like 2: DGCKDIFMKNEILSASQPFAFNCTFPPITSGEVSVTWYKNSSKIPVSKIIQSRIHQDETWILFLPMEWGDSGVYQCVIKGRDSCHRIHVNLTVFEKHWCDTSIGGLPNLSDEYKQILHLGKDDSLTCHLHFPKSCVLGPIKWYKDCNEIKGERFTVLETRLLVSNVSAEDRGNYACQAILTHSGKQYEVLNGITVSITERAGYGGSVPKIIYPKNHSIEVQLGTTLIVDCNVTDTKDNTNLRCWRVNNTLVDDYYDESKRIREGVETHVSFREHNLYTVNITFLEVKMEDYGLPFMCHAGVSTAYIILQLPAPDFRAYLIGGLIALVAVAVSVVYIYNIFKIDIVLWYRSAFHSTETIVDGKLYDAYVLYPKPHKESQRHAVDALVLNILPEVLERQCGYKLFIFGRDEFPGQAVANVIDENVKLCRRLIVIVVPESLGFGLLKNLSEEQIAVYSALIQDGMKVILIELEKIEDYTVMPESIQYIKQKHGAIRWHGDFTEQSQCMKTKFWKTVRYHMPPRRCRPFPPVQLLQHTPCYRTAGPELGSRRKKCTLTTG | 1304 | 898 | 506 | 2.67 | 0.67
